{"source": "patent US3954865A", "about": "“N-cycloalkyl substituted-10,11-dihydro 5H-dibenzo[a,d] cyclohepten-5-imines” (E. I. Du Pont de Nemours and Company, priority 1974, dated 1976)", "key": {"[1]": {"system": "uptake of norepinephrine by the hypothalamus", "experiment": "inhibition of uptake of labelled norepinephrine by rat hypothalamus homogenate (procedure of Coyle et al)", "assay_type": "biochemical", "conditions": "rat brain hypothalamus homogenate, labelled catecholamine (norepinephrine); read-out: ID50 Hypothalmus (molar concentration that produced 50% inhibition of labelled catecholamine uptake)", "description": "(§1) Many compounds which are active in the central nervous system of mammals appear to inhibit the uptake of catecholamines by mammalian brain tissues. […] The compounds of the invention have the ability of selectively inhibiting the uptake of dopamine by the corpus striatum. This ability was measured by a test procedure following that of Coyle et al supra. Rat brain slices from the corpus striatum and hypothalamus are separately homogenized and incubated with predetermined amounts of labelled norepinephrine or dopamine and a compound of the invention. After a suitable incubation period the amount of labelled catecholamine taken up by the brain homogenate is determined."}, "[2]": {"system": "uptake of dopamine by the corpus striatum", "experiment": "inhibition of uptake of labelled dopamine by rat corpus striatum homogenate (procedure of Coyle et al)", "assay_type": "biochemical", "description": "as §1"}}, "note": "At least one structure is not confirmed: it was looked up by name or label, or the drawing left a doubt."}
{"smiles": "c1ccc2c(=NCC3CC3)c3ccccc3ccc2c1", "note": "[Example 3, N-Cyclopropylmethyl-5H-dibenzo[a,d]cyclohepten-5-imine]", "values": [{"measurement": "IC50", "setting": "[1]", "result": 3.8, "unit": "µM"}, {"measurement": "IC50", "setting": "[2]; rat brain corpus striatum homogenate, labelled catecholamine (dopamine), read-out: ID50 Striatum (molar concentration that produced 50% inhibition of labelled catecholamine uptake)", "result": 10, "unit": "µM"}, {"measurement": "Ratio Hypothalmus/Striatum", "setting": "[2]; ratio of ID50 values, hypothalamus over striatum", "result": ".38"}]}
